# Several values for one entry are separate records, joined by “and”; a condition that tells them apart may be missing. Equal values may be shown once. The list shows a part of the results. Further columns of the screen follow, without active or inactive calls. The list favours compounds with an active or inconclusive main result. The note in brackets gives the kind of curve behind each potency; many fits are weak.
# Assay: qHTS Assay for Modulators of Lamin A Splicing
# Settings: HeLa LMNA splicing GFP/RFP minigene ratio, 48 h
# How it was run: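 S3 HeLa cells stably expressing lamin A-EGFP splicing minigene plus DsRed2, 600 cells/well, 48 h compound exposure at 37C. Laser-scanning cytometry; analysed as GFP (500-530 nm)/RFP (575-640 nm) total intensity ratio; 0.5% DMSO vehicle.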
# [1] = measured here: RFP viability control channel
# [2] = measured here: GFP splicing reporter channel
SMILES,AC50 [1],AC50 [2]
Cc1ccc(C)c(NC(=O)Cn2nc(C)c3nn(-c4ccc(Cl)cc4)c(C)c3c2=O)c1,"10 µM [falling, single point]",
CCOc1ccc(C(=O)Nc2cc(NC(=O)c3ccc(OCC)c(Cl)c3)cc(C(=O)O)c2)cc1Cl,"0.02 µM [falling, full curve]","0.0501 µM [falling, full curve, poor fit]"
COc1ccc(NC(=O)CSc2ncc(-c3ccc(F)cc3)n2Cc2ccco2)cc1,"22.4 µM [rising, single point]",
CC(C)(C)C(=O)C(Oc1ccc(Cl)cc1)n1ccnc1 (centres undefined),"35.5 µM [rising, single point]","7.08 µM [falling, full curve, poor fit]"
CCNc1nc(NCC)n2c(SCC(=O)c3ccccc3F)nnc2n1,"11.2 µM [rising, partial curve]",
CC(=O)N1CCCc2cc(S(=O)(=O)N3CCN(c4ccccc4F)CC3)ccc21,,"20 µM [rising, partial curve, poor fit]"
COc1ccc(/C=C2\CN(Cc3ccccc3)C/C(=C\c3ccc(OC)cc3)C2=O)cc1,"35.5 µM [falling, single point]","35.5 µM [falling, single point]"
NC(=NCCCCCCN=C(N)/N=C(\N)Nc1ccc(Cl)cc1)/N=C(\N)Nc1ccc(Cl)cc1,"1.78 µM [falling, full curve] and 35.5 nM [rising, full curve, poor fit]","3.16 µM [falling, single point] and 31.6 nM [rising, full curve, poor fit]"
O=C(CN1CCN(Cc2ccccc2)CC1)Nc1ccc([N+](=O)[O-])cc1C(=O)Nc1ccccc1F,"22.4 µM [rising, single point]",
CC1(C)N=C(SCc2ccc(F)cc2)c2ccccc2N1,"25.1 µM [falling, single point]","7.94 µM [falling, partial curve, poor fit]"
CN1CCN(c2ccc([N+](=O)[O-])cc2C(=O)c2ccc(Cl)cc2)CC1,"8.91 µM [rising, partial curve, poor fit]",
COc1ccc(C(=O)/C=C/c2ccc(OC)c(Cn3nnc4ccccc43)c2)cc1,"3.16 µM [falling, partial curve]","2.82 µM [falling, partial curve]"
CC1CCCCN1CCCNC(=O)c1cc(Sc2cccc(Cl)c2)nc2ccccc12 (centres undefined),"0.282 µM [falling, partial curve, poor fit]","0.891 µM [falling, full curve, poor fit]"
Cc1c(C(=O)OC2CCC(C)CC2)[nH]c2c1C(=O)CCC2 (centres undefined),"3.98 µM [rising, partial curve]",
COc1cccc(C(=O)Nc2cc3c(cc2C(C)=O)OCCO3)c1,"15.8 µM [rising, partial curve]","12.6 µM [rising, partial curve]"
Cc1nc2sccn2c(=O)c1CCN1CCC(=C(c2ccccc2)c2ccc(F)cc2)CC1,"17.8 µM [rising, partial curve]","15.8 µM [rising, partial curve, poor fit]"
CCCCCCCCNC(=O)CCNC(=O)c1ccc(C(C)(C)C)cc1,,"12.6 µM [rising, single point]"
Cc1nc2c(C)cccc2cc1C(=O)N/N=C/c1cccc([N+](=O)[O-])c1,"35.5 µM [rising, single point]",
O=C(CN1CCN(c2ccccn2)CC1)Nc1ccc2ccccc2c1,"12.6 µM [rising, single point]",
OC1CCCN(Cc2ccc3ccc4cccc5ccc2c3c45)C1 (centres undefined),,"35.5 µM [falling, single point]"
COc1ccc(C(=O)Nc2nc(-c3cccs3)cs2)cc1,"14.1 µM [rising, partial curve]","11.2 µM [rising, partial curve]"
Cc1ccc(Cl)cc1NC(=O)CSc1nc2ccccc2c2nc(-c3ccccc3)nn12,"10 µM [rising, partial curve, poor fit]",
COc1cc(OC)c(-c2nn3c(-c4ccncc4)nnc3s2)cc1OC,"12.6 µM [rising, single point]",
CCN(CC)S(=O)(=O)c1ccc(Oc2ccccc2)cc1,"14.1 µM [rising, single point]",
Cc1nc2sc3c(c2c(=O)n1N)CCC3,,"0.00316 µM [falling, full curve, poor fit]"
Cc1ccc(N/C(C(Cl)=C(Cl)Cl)=C(/Cl)[N+](=O)[O-])c(C)c1,"15.8 µM [rising, partial curve]","12.6 µM [rising, partial curve]"

# Quoted at random: 3 compounds from above.
SMILES,AC50 [1],AC50 [2]
CC1CCCCN1CCCNC(=O)c1cc(Sc2cccc(Cl)c2)nc2ccccc12 (centres undefined),"0.282 µM [falling, partial curve, poor fit]","0.891 µM [falling, full curve, poor fit]"
Cc1c(C(=O)OC2CCC(C)CC2)[nH]c2c1C(=O)CCC2 (centres undefined),"3.98 µM [rising, partial curve]",
CN1CCN(c2ccc([N+](=O)[O-])cc2C(=O)c2ccc(Cl)cc2)CC1,"8.91 µM [rising, partial curve, poor fit]",

# Further structures

SMILES,AC50 [1],AC50 [2]
O=S(=O)(NCC(c1cccnc1)N1CCN(c2ccc(F)cc2)CC1)c1ccc(F)cc1 (centres undefined),"5.62 µM [rising, partial curve, poor fit]",
O=C(NCC(c1cccs1)N1CCOCC1)c1ccccc1NS(=O)(=O)c1cc([N+](=O)[O-])ccc1Cl (centres undefined),"35.5 µM [rising, single point]",
N#CC1=C(N)Oc2cc(N)ccc2C1C1CC=CCC1 (centres undefined),"12.6 µM [rising, single point]",
C=C(C(=O)c1ccccc1)C(C)C(=C)C(=O)c1ccccc1,"3.55 µM [rising, full curve, poor fit]",
COc1cc(CNCc2ccncc2)cc(Br)c1OCc1ccccc1F,"3.98 µM [rising, full curve]","3.16 µM [rising, single point]"
S=c1ccss1,"11.2 µM [falling, partial curve, poor fit]","3.55 µM [falling, single point]"
CCCCNc1nc2ccccc2n1CC(=O)Nc1c(C)cccc1CC,,"0.01 µM [rising, full curve, poor fit]"
CC(=O)Sc1nc(-c2ccccc2)[nH]c1S(=O)(=O)c1ccc(C)cc1,,"11.2 µM [falling, partial curve]"
O=C1CN(/N=C/c2ccc([N+](=O)[O-])o2)C(=O)N1,"1 µM [falling, single point] and 14.1 µM [rising, partial curve]","35.5 µM [falling, single point] and 11.2 µM [rising, partial curve, poor fit]"
O=C(N/N=C/c1ccc([N+](=O)[O-])s1)C(O)c1ccccc1 (centres undefined),"31.6 µM [rising, single point]",
CCCCc1sc(-c2c(C#N)c(N)nc3c2CCCCC3)cc1[N+](=O)[O-],,"3.98 µM [rising, full curve]"
CS(=O)(=O)c1ccc(C(=O)OCC(=O)NC(=O)C2CCCCC2)cc1[N+](=O)[O-],"35.5 µM [falling, partial curve]",
NC(N)=NC(=O)c1nc(Cl)c(N2CCCCCC2)nc1N,"4.47 µM [falling, full curve, poor fit]","4.47 µM [falling, full curve, poor fit]"
O=C(NN1C(=O)C2C(c3ccccc3)C=CC(c3ccccc3)C2C1=O)c1cccc(Br)c1 (centres undefined),"15.8 µM [rising, single point]","14.1 µM [rising, single point]"
Cc1cc(C(=O)CSc2ccc3c(c2)OCCO3)c(C)n1C1CC1,"35.5 µM [rising, single point]","22.4 µM [rising, single point]"
Cc1ccc(NC(=O)C2CC(=O)n3ncnc3N2)cc1C (centres undefined),"3.16 µM [falling, full curve]","11.2 µM [falling, partial curve]"
Cc1ccc(/C=C2\SC(=S)N(c3cccnc3)C2=O)cc1,,"3.16 µM [falling, partial curve, poor fit]"
COc1ccc2c(c1)O[C@@H](c1cccc(C(F)(F)F)c1)[C@H](OC(=O)N[C@H]1CCCc3ccccc31)C2=O,"14.1 µM [rising, partial curve]",
Cn1cc(C(=O)N/N=C/C(Br)=C/c2ccccc2)ccc1=O,"7.08 µM [rising, partial curve, poor fit]",
O=C(Cc1ccc(S(=O)(=O)N2CCOCC2)s1)Nc1ccc2c(c1)CCC2,"25.1 µM [rising, single point]",
C=CCN1C(=O)C2C(C(=O)NC3CCCCC3)C3C=CC2(O3)C1C(=O)NC1CCCC1 (centres undefined),"0.794 µM [falling, full curve, poor fit]","0.794 µM [falling, full curve, poor fit]"
CCCC(=O)Nc1sc(C(=O)Nc2cccc(N)c2)c(C)c1C(=O)OC,"0.0631 µM [rising, full curve, poor fit]","0.0316 µM [rising, full curve, poor fit]"
COc1cccc(COCC(O)Cn2cnc3cc(C)c(C)cc32)c1 (centres undefined),,"17.8 µM [falling, partial curve, poor fit]"
Cn1ncc(Br)c1C(=O)NC1C2CC3CC(C2)CC1C3 (centres undefined),"14.1 µM [rising, single point]","3.16 µM [rising, partial curve, poor fit]"
C=CCNC(=O)/C(C#N)=C/c1cc(Br)ccc1OC,"12.6 µM [falling, partial curve]","22.4 µM [falling, single point]"
Cc1ccc(OCc2nnc(SCc3nc4ccccc4[nH]3)n2Cc2ccco2)cc1,"6.31 µM [rising, full curve]",

# From PubChem BioAssay AID1487 (National Center for Advancing Translational Sciences (NCATS), 2009)
